Laboratory results: US20160354437A1
Results are given in words; binding and its absence hold for the method and conditions named. For part of these data: Binding seen in cells or lysates may run through a third protein. Some entries that bind do so weakly or less than the wild type. For part of these data: Tags and fused reporters may be left off the sequences shown.

The chains behind the UniProt entries cited, without tags or fusion partners. Where a name states a change or a piece, a line headed by the entry shows the natural chain unless it says otherwise. Residues count along the entry.
UniProt Q16666: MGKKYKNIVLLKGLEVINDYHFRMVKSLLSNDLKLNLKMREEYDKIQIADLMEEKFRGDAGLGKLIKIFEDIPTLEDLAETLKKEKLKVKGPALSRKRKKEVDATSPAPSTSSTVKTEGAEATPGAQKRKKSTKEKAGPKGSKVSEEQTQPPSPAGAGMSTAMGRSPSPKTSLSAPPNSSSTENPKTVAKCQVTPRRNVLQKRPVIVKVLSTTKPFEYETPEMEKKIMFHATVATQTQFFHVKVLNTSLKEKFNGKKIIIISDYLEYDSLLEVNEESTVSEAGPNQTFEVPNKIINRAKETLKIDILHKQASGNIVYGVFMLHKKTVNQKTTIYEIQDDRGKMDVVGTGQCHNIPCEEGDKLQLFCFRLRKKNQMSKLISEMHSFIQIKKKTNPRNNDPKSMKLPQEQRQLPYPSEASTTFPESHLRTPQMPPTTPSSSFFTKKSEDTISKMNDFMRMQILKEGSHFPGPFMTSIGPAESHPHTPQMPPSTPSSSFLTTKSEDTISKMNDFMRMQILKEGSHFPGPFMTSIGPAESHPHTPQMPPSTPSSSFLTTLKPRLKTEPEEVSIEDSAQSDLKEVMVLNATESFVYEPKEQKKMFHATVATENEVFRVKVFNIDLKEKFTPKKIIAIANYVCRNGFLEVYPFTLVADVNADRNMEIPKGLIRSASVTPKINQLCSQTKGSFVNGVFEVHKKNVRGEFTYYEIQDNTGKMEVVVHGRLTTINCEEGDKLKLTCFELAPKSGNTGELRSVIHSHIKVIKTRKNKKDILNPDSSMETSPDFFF
PYD of IFI16: residues 1-88 of Q16666
UniProt Q9ULZ3: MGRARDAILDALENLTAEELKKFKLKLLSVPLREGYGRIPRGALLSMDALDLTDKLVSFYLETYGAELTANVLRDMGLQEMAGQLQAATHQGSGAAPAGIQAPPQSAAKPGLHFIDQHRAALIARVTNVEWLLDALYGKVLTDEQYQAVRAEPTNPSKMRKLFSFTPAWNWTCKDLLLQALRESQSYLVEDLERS
ASC^PYD: residues 1-91 of Q9ULZ3

How the values were obtained:
PYD of IFI16 (human) [1] = target: PYD of IFI16 (human) (UniProt Q16666); assay: GST pull-down
PYD of AIM2 (human) [2] = target: T1, PYD of AIM2 (human) (UniProt O14862); assay: GST pull-down
T1 sequence (looked up): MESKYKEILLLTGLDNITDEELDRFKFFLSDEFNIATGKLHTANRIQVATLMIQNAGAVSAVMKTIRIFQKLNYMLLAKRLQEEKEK

IFI16 (human) [3] = target: IFI16 (human) (UniProt Q16666); assay: immunofluorescence co-localisation in hMΦ (FIG. 4e, f)
PYD of IFI16 (human) [4] = target: PYD of IFI16 (human) (UniProt Q16666); assay: GST pull-down and co-IP in HEK293 cells (FIG. 31)
PYD of AIM2 (human) [5] = target: T1, PYD of AIM2 (human); assay: GST pull-down and co-IP in HEK293 cells (FIG. 31)
IFI16 (human) [6] = target: IFI16 (human) (UniProt Q16666); assay: figure title (pull-down, co-IP, co-localisation)
IFI16 (human) [7] = target: IFI16 (human) (UniProt Q16666); assay: conclusion of the pull-down, co-IP and cross-linking experiments
ASC^PYD (human) [8] = target: ASC^PYD (human) (UniProt Q9ULZ3); assay: GST pull-down and co-IP in HEK293 cells (FIG. 30)
IFI16 (human) [9] = target: IFI16 (human) (UniProt Q16666); assay: fluorescence microscopy of hMΦ infected with GFP-POP3 adenovirus (FIG. 35)
ASC^PYD (human) [10] = target: ASC^PYD (human) (UniProt Q9ULZ3); assay: GST pull-down; co-IP in HEK293 cells
[11] = target: endogenous AIM2-ASC complex in MVA-infected THP-1 cells (human) (UniProt O14862+Q9ULZ3); assay: immunoprecipitation of the endogenous complex from THP-1 cells (FIG. 4i)
IFI16 (human) [12] = target: IFI16 (human) (UniProt Q16666); assay: co-IP in HEK293 cells
IFI16 (human) [13] = target: IFI16 (human) (UniProt Q16666); assay: co-IP in HEK293 cells (FIG. 4b)
PYD of IFI16 (human) [14] = target: PYD of IFI16 (human) (UniProt Q16666); assay: GST pull-down (FIG. 4a)
PYD of AIM2 (human) [15] = target: T1, PYD of AIM2 (human); assay: GST pull-down (FIG. 4a)
IFI16 (human) [16] = target: IFI16 (human) (UniProt Q16666); assay: GST pull-down from THP-1 lysates (FIG. 4g)
AIM2 (human) = target: T2, AIM2 (human) (UniProt O14862); assay: GST pull-down from THP-1 lysates (FIG. 4g)
T2 sequence (looked up): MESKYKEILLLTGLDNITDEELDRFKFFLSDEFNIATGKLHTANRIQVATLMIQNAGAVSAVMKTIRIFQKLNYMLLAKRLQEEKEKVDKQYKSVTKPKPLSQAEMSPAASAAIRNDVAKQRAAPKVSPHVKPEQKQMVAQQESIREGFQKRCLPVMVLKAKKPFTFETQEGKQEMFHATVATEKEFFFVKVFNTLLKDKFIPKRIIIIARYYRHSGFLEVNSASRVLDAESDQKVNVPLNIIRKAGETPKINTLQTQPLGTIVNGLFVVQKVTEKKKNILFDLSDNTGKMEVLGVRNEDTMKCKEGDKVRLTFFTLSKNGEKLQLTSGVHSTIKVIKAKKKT

AIM2 from BMDM (mouse) [17] = target: T3, AIM2 from BMDM (mouse) (UniProt Q91VJ1); assay: GST pull-down from BMDM lysates (FIG. 11a)
T3 sequence (looked up): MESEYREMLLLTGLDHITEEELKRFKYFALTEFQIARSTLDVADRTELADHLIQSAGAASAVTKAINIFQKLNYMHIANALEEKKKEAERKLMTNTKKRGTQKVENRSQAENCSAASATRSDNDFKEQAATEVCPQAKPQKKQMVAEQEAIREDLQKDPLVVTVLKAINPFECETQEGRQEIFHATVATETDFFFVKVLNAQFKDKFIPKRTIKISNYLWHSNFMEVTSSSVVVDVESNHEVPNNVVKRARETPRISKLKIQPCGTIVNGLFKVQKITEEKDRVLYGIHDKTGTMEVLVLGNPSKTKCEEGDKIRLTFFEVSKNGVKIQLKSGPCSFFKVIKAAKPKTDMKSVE

AIM2 from BMDM (mouse) [18] = target: T3, AIM2 from BMDM (mouse); assay: figure title; GST pull-down from BMDM lysates
ASC (human) [19] = target: ASC (human) (UniProt Q9ULZ3); assay: GST pull-down from THP-1 lysates
ASC (human) [20] = target: ASC (human) (UniProt Q9ULZ3); assay: GST pull-down from THP-1 lysates (FIG. 18a)
mouse ASC (mouse) [21] = target: T4, mouse ASC (mouse) (UniProt Q9EPB4); assay: GST pull-down from BMDM lysates (FIG. 22c)
T4 sequence (looked up): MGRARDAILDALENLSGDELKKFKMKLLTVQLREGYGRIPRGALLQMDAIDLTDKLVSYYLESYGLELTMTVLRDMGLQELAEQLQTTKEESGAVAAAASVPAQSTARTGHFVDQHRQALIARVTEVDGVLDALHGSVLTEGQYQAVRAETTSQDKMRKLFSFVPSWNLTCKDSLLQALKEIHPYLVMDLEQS

mouse ASC (mouse) [22] = target: T4, mouse ASC (mouse); assay: GST pull-down from BMDM lysates
ASC^PYD (human), Q9ULZ3 = assay: co-IP with HA antibody in HEK293 cells (FIG. 18d); details: remark: other sources report otherwise

Measured: binding

B1: POP3 (protein, not shown: large carriers)
chain: MESKYKEILLLTSLDNITDEELDRFKCFLPDEFNIATGKLHTLNSTSSQLDLKRWHGVCSEEDRIFQKLNYMLVAKCLREEQETGICGSPSSARSVSQSRLGLSFHGISGNAC
binds: PYD of IFI16 (human) [1] | PYD of AIM2 (human) [2] | IFI16 (human) [3] | PYD of IFI16 (human) [4] | PYD of AIM2 (human) [5] | IFI16 (human) [6] | IFI16 (human) [7] | ASC^PYD (human) [8] | IFI16 (human) [9] | ASC^PYD (human) [10] | [11] | IFI16 (human) [12] | IFI16 (human) [13]

B2: GST-POP3 (protein, not shown: a dimerising Fc or GST)
chain: B1 chain
binds: PYD of IFI16 (human) [14] | PYD of AIM2 (human) [15] | IFI16 (human) [16] | AIM2 (human) | AIM2 from BMDM (mouse) [17] | AIM2 from BMDM (mouse) [18]

B3: GST-POP1 (protein, not shown: a dimerising Fc or GST)
chain: MGTKREAILKVLENLTPEELKKFKMKLGTVPLREGFERIPRGALGQLDIVDLTDKLVASYYEDYAAELVVAVLRDMRMLEEAARLQRAA
binds: ASC (human) [19] | ASC (human) [20] | mouse ASC (mouse) [21] | mouse ASC (mouse) [22]

B4: GFP-POP1, Q8WXC3 1-89 (protein, not shown: large carriers)
chain: B3 chain
binds: ASC^PYD (human), Q9ULZ3
